According to patent publication US20260206754A1, “HETEROARYL COMPOUNDS FOR THE CONTROL OF INVERTEBRATE PESTS” (priority 2022, published 2026):
Some of these results come from one statement about several compounds together. At least one structure is not confirmed: it was looked up by name or label, or the drawing left a doubt.

Assays:
Format in all cases: in vivo
[1] = tested on: tobacco budworm (Heliothis virescens); assay: B.1 Tobacco budworm, 96-well microtiter plate diet test with eggs; details: 2500 ppm; egg and larval mortality after 5 days
Procedure: (§1) If not otherwise specified, the test solutions were prepared as follow: The active compound was dissolved at the desired concentration in a mixture of 1:1 (vol:vol) distilled water:acetone. The test solution was prepared on the day of use.
B.1 Tobacco Budworm (Heliothis virescens)
For evaluating control of tobacco budworm (Heliothis virescens) the test unit consisted of 96-well-microtiter plates containing an insect diet and 15-25 H. virescens eggs.
The compounds were formulated using a solution containing 75% v/v water and 25% v/v DMSO. Different concentrations of formulated compounds were sprayed onto the insect diet at 10 μl, using a custom-built micro atomizer, at two replications.
After application, microtiter plates were incubated at about 28±1° C. and about 80±5% relative humidity for 5 days. Egg and larval mortality was then visually assessed.

[2] = tested on: boll weevil (Anthonomus grandis); assay: B.2 Boll weevil, 96-well microtiter plate diet test with eggs; details: 2500 ppm; egg and larval mortality after 5 days
Procedure: as §1
B.2 Boll Weevil (Anthonomus grandis)
For evaluating control of boll weevil (Anthonomus grandis) the test unit consisted of 96-well-microtiter plates containing an insect diet and 5-10 A. grandis eggs.
The compounds were formulated using a solution containing 75% v/v water and 25% v/v DMSO. Different concentrations of formulated compounds were sprayed onto the insect diet at 5 μl, using a custom-built micro atomizer, at two replications.
After application, microtiter plates were incubated at about 25±1° C. and about 75±5% relative humidity for 5 days. Egg and larval mortality was then visually assessed.

[3] = tested on: Southern armyworm (Spodoptera eridania), 2nd instar larvae; assay: B.3 Southern armyworm, 2nd instar larvae, foliar spray on lima bean plants; details: 300 ppm; 4 days after treatment
Procedure: B.3 Southern Armyworm (Spodoptera eridania), 2nd Instar Larvae
The active compounds were formulated by a Tecan liquid handler in 100% cyclohexanone as a 10,000-ppm solution supplied in tubes. The 10,000-ppm solution was serially diluted in 100% cyclohexanone to make interim solutions. These served as stock solutions for which final dilutions were made by the Tecan in 50% acetone:50% water (v/v) into 10 or 20 ml glass vials. A non-ionic surfactant (Kinetic@) was included in the solution at a volume of 0.01% (v/v). The vials were then inserted into an automated electrostatic sprayer equipped with an atomizing nozzle for application to plants/insects. Lima bean plants (variety Sieva) were grown 2 plants to a pot and selected for treatment at the 1st true leaf stage. Test solutions were sprayed onto the foliage by an auto-mated electrostatic plant sprayer equipped with an atomizing spray nozzle. The plants were dried in the sprayer fume hood and then removed from the sprayer. Each pot was placed into perforated plastic bags with a zip closure. Ten to 11 armyworm larvae were placed into the bag and the bags zipped closed. Test plants were maintained in a growth room at about 25° C. and about 20-40% relative humidity for 4 days, avoiding direct exposure to fluorescent light (14:10 light:dark photoperiod) to prevent trapping of heat inside the bags. Mortality and reduced feeding were assessed 4 days after treatment, compared to untreated control plants.

[4] = tested on: Orchid thrips (Dichromothrips corbetti); assay: B.4 Orchid thrips, floral-immersion technique; details: 300 ppm; 72 hours after treatment
[5] = tested on: yellow fever mosquito (Aedes aegypti); details: 2500 ppm; larval mortality after 2 days
Procedure: as §1
B.5 Yellow Fever Mosquito (Aedes aegypti)
For evaluating control of yellow fever mosquito (Aedes aegypti) the test unit consisted of 96-well-microtiter plates containing 200 μl of tap water per well and 5-15 freshly hatched A. aegypti larvae.
The active compounds were formulated using a solution containing 75% (v/v) water and 25% (v/v) DMSO. Different concentrations of formulated compounds or mixtures were sprayed onto the insect diet at 2.5 μl, using a custom-built micro atomizer, at two replications.
After application, microtiter plates were incubated at 281° C., 80±5% RH for 2 days. Larval mortality was then visually assessed.

[6] = tested on: green peach aphid (Myzus persicae); assay: B.6 Green peach aphid, systemic test with artificial diet under membrane; details: 2500 ppm; aphid mortality after 3 days
Procedure: as §1
B.6 Green Peach Aphid (Myzus persicae)
For evaluating control of green peach aphid (Myzus persicae) through systemic means, the test unit consisted of 96-well-microtiter plates containing liquid artificial diet under an artificial membrane.
The compounds were formulated using a solution containing 75% v/v water and 25% v/v DMSO. Different concentrations of formulated compounds were pipetted into the aphid diet, using a custom built pipetter, at two replications.
After application, 5-8 adult aphids were placed on the artificial membrane inside the microtiter plate wells. The aphids were then allowed to suck on the treated aphid diet and incubated at about 23±1° C. and about 50±5% relative humidity for 3 days. Aphid mortality and fecundity was then visually assessed.

Measured: mortality in comparison with untreated controls

CC(NC(=O)c1cc(Br)cc(S(=O)(=O)C(F)(F)F)c1)c1nccnc1-n1cc(S(C)(=O)=O)cn1 (stereo not drawn) [I-32]
at least 75%: all assays above

CC(c1nccnc1-n1cc(S(C)(=O)=O)cn1)N(CC1CC1)C(=O)c1cc(C(F)(F)F)cc(C(F)(F)F)c1 (stereo not drawn) [I-23]
at least 75%: all assays above
